Reference: paper PMC6390509
Results are given in words; binding and its absence hold for the method and conditions named. Some results given as binding are weak or reduced against the parent protein; the word gives no strength.

The chains behind the UniProt entries cited, without tags or fusion partners.
UniProt Q38876: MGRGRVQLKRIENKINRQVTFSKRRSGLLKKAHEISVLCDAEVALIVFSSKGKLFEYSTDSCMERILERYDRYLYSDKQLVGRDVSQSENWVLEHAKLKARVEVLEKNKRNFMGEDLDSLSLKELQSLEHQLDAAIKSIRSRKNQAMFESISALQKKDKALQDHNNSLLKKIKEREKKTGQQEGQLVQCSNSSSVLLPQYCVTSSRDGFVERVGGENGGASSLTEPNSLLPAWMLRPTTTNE

Target: Arabidopsis FUL (Arabidopsis thaliana) (UniProt Q38876)
Assay: two-hybrid; Full-length proteins fused to the GAL4 binding domain or activation domain, all baits and preys screened against each other; after mating, diploid yeast grown for 5 days on SD medium lacking Leu, Trp and His with 5 mM 3-amino-1,2,4 triazole; EpMADS8, EpMADS21 and EpMADS22 only as prey (auto-activation)

binding: binds
Substance: Arabidopsis FUL (from UniProt Q38876 1-242)
